# Assay results reported in patent publication US20250263370A1 (Tay Therapeutics Limited, priority 2022, published 2025).
# Several values for one entry are separate records, joined by “and”; a condition that tells them apart may be missing. Equal values may be shown once. The source gives many values for each of these; only a part stands here.
# System: collagen-induced arthritis
# Assay: Collagen-induced arthritis (CIA) model in rats: body weight, paw volume, clinical scores, clinical observations; for Detailed Clinical Scores, left forelimb: key of the grades not given here; for Detailed Clinical Scores, left hind limb: key of the grades not given here; for Detailed Clinical Scores, right forelimb: key of the grades not given here; for Detailed Clinical Scores, right hind limb: key of the grades not given here; for Detailed Clinical Scores, score: key of the grades not given here; for Overall clinical score: key of the grades not given here
# Conditions: for Animal paw volume percent change: individual animals; for Detailed Clinical Scores, left forelimb / Detailed Clinical Scores, left hind limb / Detailed Clinical Scores, right forelimb / Detailed Clinical Scores, right hind limb / Detailed Clinical Scores, score / Overall clinical score: CIA rats; for Detailed Clinical Scores, left forelimb / Detailed Clinical Scores, left hind limb / Detailed Clinical Scores, right forelimb / Detailed Clinical Scores, right hind limb / Detailed Clinical Scores, score: individual animals ID 1-8; for Overall clinical score: individual animals #1-8
smiles,measurement,setting,value
"CNC(=O)c1[nH]c(C(=O)NC2CCC2)cc1O[C@@H](C)c1ccccc1 (stereo in doubt) [Example 101, N^5-cyclobutyl-N^2-methyl-3-(1-phenylethoxy)-1H-pyrrole-2,5-dicarboxamide]",Animal paw volume percent change,"Day 0, L paw, 3 mg/kg",0.00%
same,Animal paw volume percent change,"Day 0, L paw, 10 mg/kg",0.00%
same,Animal paw volume percent change,"Day 0, L paw, 30 mg/kg",0.00%
same,Animal paw volume percent change,"Day 0, R paw, 3 mg/kg",0.00%
same,Animal paw volume percent change,"Day 0, R paw, 10 mg/kg",0.00%
same,Animal paw volume percent change,"Day 0, R paw, 30 mg/kg",0.00%
same,"Detailed Clinical Scores, left forelimb","Day 0, 3 mg/kg",0
same,"Detailed Clinical Scores, left hind limb","Day 0, 3 mg/kg",0
same,"Detailed Clinical Scores, right forelimb","Day 0, 3 mg/kg",0
same,"Detailed Clinical Scores, right hind limb","Day 0, 3 mg/kg",0
same,"Detailed Clinical Scores, score","Day 0, 3 mg/kg",0
same,"Detailed Clinical Scores, left forelimb","Day 0, 10 mg/kg",0
same,"Detailed Clinical Scores, left hind limb","Day 0, 10 mg/kg",0
same,"Detailed Clinical Scores, right forelimb","Day 0, 10 mg/kg",0
same,"Detailed Clinical Scores, right hind limb","Day 0, 10 mg/kg",0
same,"Detailed Clinical Scores, score","Day 0, 10 mg/kg",0
same,"Detailed Clinical Scores, left forelimb","Day 0, 30 mg/kg",0
same,"Detailed Clinical Scores, left hind limb","Day 0, 30 mg/kg",0
same,"Detailed Clinical Scores, right forelimb","Day 0, 30 mg/kg",0
same,"Detailed Clinical Scores, right hind limb","Day 0, 30 mg/kg",0
same,"Detailed Clinical Scores, score","Day 0, 30 mg/kg",0
same,Overall clinical score,"Day 0, 30 mg/kg",0
same,Animal paw volume percent change,"Day 6, L paw, 3 mg/kg",0.00% (3×) and 0.77% and 0.38% and 6.08% and 0.74% and 0.75%
same,Animal paw volume percent change,"Day 6, L paw, 10 mg/kg",1.44% and −2.78% and 1.56% and 3.50% and 2.30% and 3.46% and 0.00% and −0.40%
same,Animal paw volume percent change,"Day 6, L paw, 30 mg/kg",1.89% and 0.76% (2×) and 0.00% and 0.38% (2×) and 1.54% and 0.37%
same,Animal paw volume percent change,"Day 6, R paw, 3 mg/kg",0.00% (2×) and 0.76% and 0.75% and 5.68% and 1.12% and 0.77% and 0.74%
same,Animal paw volume percent change,"Day 6, R paw, 10 mg/kg",0.00% (2×) and −1.59% and 1.54% and 2.32% and 3.09% and 2.30% and −0.73%
same,Animal paw volume percent change,"Day 6, R paw, 30 mg/kg",1.50% and 0.77% and 0.38% and 0.64% and 1.15% and 0.76% (2×) and 0.00%
same,"Detailed Clinical Scores, left forelimb","Day 6, 3 mg/kg",0
same,"Detailed Clinical Scores, left hind limb","Day 6, 3 mg/kg",0
same,"Detailed Clinical Scores, right forelimb","Day 6, 3 mg/kg",0
same,"Detailed Clinical Scores, right hind limb","Day 6, 3 mg/kg",0
same,"Detailed Clinical Scores, score","Day 6, 3 mg/kg",0
same,"Detailed Clinical Scores, left forelimb","Day 6, 10 mg/kg",0
same,"Detailed Clinical Scores, left hind limb","Day 6, 10 mg/kg",0
same,"Detailed Clinical Scores, right forelimb","Day 6, 10 mg/kg",0
same,"Detailed Clinical Scores, right hind limb","Day 6, 10 mg/kg",0
same,"Detailed Clinical Scores, score","Day 6, 10 mg/kg",0
same,"Detailed Clinical Scores, left forelimb","Day 6, 30 mg/kg",0
same,"Detailed Clinical Scores, left hind limb","Day 6, 30 mg/kg",0
same,"Detailed Clinical Scores, right forelimb","Day 6, 30 mg/kg",0
same,"Detailed Clinical Scores, right hind limb","Day 6, 30 mg/kg",0
same,"Detailed Clinical Scores, score","Day 6, 30 mg/kg",0
same,Overall clinical score,"Day 6, 30 mg/kg",0
same,Animal paw volume percent change,"Day 12, L paw, 3 mg/kg",1.48% and 0.77% and 5.32% and 7.60% and 1.49% and 24.52% and 1.47% and 3.75%
same,Animal paw volume percent change,"Day 12, L paw, 10 mg/kg",9.39% and −0.40% and 10.89% and 26.46% and 2.30% and 10.38% and 1.47% and 0.40%
same,Animal paw volume percent change,"Day 12, L paw, 30 mg/kg",2.26% and 1.52% and −1.13% and 0.76% and 3.04% and 0.38% and 3.09% and 0.75%
same,Animal paw volume percent change,"Day 12, R paw, 3 mg/kg",1.45% and 8.37% and 3.00% and 10.23% and 2.61% and 9.96% and 0.74% and 3.75%
same,Animal paw volume percent change,"Day 12, R paw, 10 mg/kg",2.49% and 1.20% and 44.79% and 2.32% and 3.86% and 5.36% and 1.47% and 2.39%
same,Animal paw volume percent change,"Day 12, R paw, 30 mg/kg",12.36% and 3.83% and 1.53% and 0.64% and 1.92% and 0.76% and 2.66% and −0.75%
same,Overall clinical score,"Day 12, 30 mg/kg",1 and 0 (7×)
same,Animal paw volume percent change,"Day 13, L paw, 3 mg/kg",19.19% and 16.86% and 14.07% and 16.73% and 2.23% and 42.15% and 4.40% and 5.24%
same,Animal paw volume percent change,"Day 13, L paw, 10 mg/kg",23.10% and 4.37% and 40.47% and 42.02% and 3.07% and 11.15% and 5.13% and 3.57%
same,Animal paw volume percent change,"Day 13, L paw, 30 mg/kg",5.28% and 3.04% and 0.00% and 1.52% and 4.56% and 2.29% and 4.63% and 0.75%
same,Animal paw volume percent change,"Day 13, R paw, 3 mg/kg",2.91% and 13.69% and 5.24% and 10.98% and 4.10% and 28.35% and 5.20% and 3.75%
same,Animal paw volume percent change,"Day 13, R paw, 10 mg/kg",9.25% and 5.18% and 46.33% and 5.41% (2×) and 8.05% and 5.13% and 2.39%
same,Animal paw volume percent change,"Day 13, R paw, 30 mg/kg",14.98% and 5.36% and 2.30% and 2.15% and 4.62% and 1.52% and 3.04% and −0.75%
same,Overall clinical score,"Day 13, 10 mg/kg",2 and 1
same,Overall clinical score,"Day 13, 30 mg/kg",1 and 0 (7×)
same,Animal paw volume percent change,"Day 14, L paw, 3 mg/kg",22.88% and 28.74% and 27.76% and 24.71% and 17.84% and 53.64% and 19.05% and 21.72%
same,Animal paw volume percent change,"Day 14, L paw, 10 mg/kg",44.40% and 19.05% and 60.70% and 90.66% and 6.13% and 11.15% and 5.49% and 3.57%
same,Animal paw volume percent change,"Day 14, L paw, 30 mg/kg",5.28% and 2.28% and −0.75% and 4.18% and 3.80% and 2.67% and 4.63% and −3.00%
same,Animal paw volume percent change,"Day 14, R paw, 3 mg/kg",13.82% and 15.21% and 5.62% and 41.29% and 11.57% and 55.94% and 5.95% and 6.74%
same,Animal paw volume percent change,"Day 14, R paw, 10 mg/kg",14.95% and 33.47% and 71.81% and 28.57% and 5.41% and 9.20% and 6.59% and 1.59%
same,Animal paw volume percent change,"Day 14, R paw, 30 mg/kg",14.61% and 4.60% and 3.07% and 2.15% and 4.62% and 3.04% and 2.66% and −4.12%
same,Overall clinical score,"Day 14, 10 mg/kg",5 and 0 (4×)
same,Overall clinical score,"Day 14, 30 mg/kg",1 and 0 (7×)
same,Animal paw volume percent change,"Day 15, L paw, 3 mg/kg",23.99%
same,Animal paw volume percent change,"Day 15, L paw, 10 mg/kg",8.79% and 19.44%
same,Animal paw volume percent change,"Day 15, L paw, 30 mg/kg",9.81% and 35.74% and 18.11% and 4.56% (2×) and 1.91% and 10.81% and −1.87%
